Consider one substance from paper PMC6557631.

Protein sequences, listed by entry. Tags and fused reporters are not part of them. Lines headed by an entry give the natural chain unless they say otherwise; changes in a name come on top.
UniProt P03101: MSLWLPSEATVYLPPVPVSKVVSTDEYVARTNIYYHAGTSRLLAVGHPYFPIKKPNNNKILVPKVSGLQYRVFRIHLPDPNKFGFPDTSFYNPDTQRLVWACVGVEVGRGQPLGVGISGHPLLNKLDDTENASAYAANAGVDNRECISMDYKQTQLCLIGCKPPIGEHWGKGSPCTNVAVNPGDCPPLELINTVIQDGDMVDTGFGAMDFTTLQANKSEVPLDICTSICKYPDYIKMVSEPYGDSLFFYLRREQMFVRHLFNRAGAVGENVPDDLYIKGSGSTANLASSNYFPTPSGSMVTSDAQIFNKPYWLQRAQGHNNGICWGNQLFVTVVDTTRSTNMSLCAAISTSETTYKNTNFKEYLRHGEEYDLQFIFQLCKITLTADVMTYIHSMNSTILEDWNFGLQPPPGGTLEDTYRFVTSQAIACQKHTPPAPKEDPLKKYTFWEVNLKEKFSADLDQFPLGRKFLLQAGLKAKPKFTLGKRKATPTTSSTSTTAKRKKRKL

Results are given in words; binding and its absence hold for the method and conditions named. Binding seen in cells or lysates may run through a third protein. Some results given as binding are weak or reduced against the parent protein; the word gives no strength.

The target in this test is T1, tetraspanin CD151 (human (endogenous in HaCaT)) (UniProt P48509).
T1 sequence: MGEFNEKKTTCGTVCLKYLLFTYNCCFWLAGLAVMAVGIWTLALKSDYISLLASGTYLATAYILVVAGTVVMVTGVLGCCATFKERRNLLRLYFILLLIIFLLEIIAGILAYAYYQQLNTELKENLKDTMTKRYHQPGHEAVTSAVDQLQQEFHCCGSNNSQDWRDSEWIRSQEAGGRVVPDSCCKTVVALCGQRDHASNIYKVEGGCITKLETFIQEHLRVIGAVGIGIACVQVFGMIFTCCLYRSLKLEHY
The test can be described thus: proximity ligation; Duolink PLA on fixed HaCaT cells incubated with HPV16 PsVs for 5 hr; primary antibodies anti-CD151 mAb 11G5A and anti-L1 pAb K75; cells treated with control or ADAM17 siRNA, with or without EGF (20 ng/ml) pre-treatment; only the binder purified.

On to “HPV16 pseudovirions (PsVs) (from UniProt P03101 1-505; P03107 1-473) (complex)”, for which the binding result is recorded as “binds”.
